Reference: the supplement of paper PMC11732987, “Enantioselective OTUD7B fragment discovery through chemoproteomics screening and high-throughput optimisation” (Communications Chemistry, 2025)
Some of the results follow. The data scatter; read single values as rough.

Protein sequences, listed by entry. Tags and fused reporters are not part of them. Lines headed by an entry give the natural chain unless they say otherwise; changes in a name come on top. Residues count along the entry.
UniProt Q9BPX6: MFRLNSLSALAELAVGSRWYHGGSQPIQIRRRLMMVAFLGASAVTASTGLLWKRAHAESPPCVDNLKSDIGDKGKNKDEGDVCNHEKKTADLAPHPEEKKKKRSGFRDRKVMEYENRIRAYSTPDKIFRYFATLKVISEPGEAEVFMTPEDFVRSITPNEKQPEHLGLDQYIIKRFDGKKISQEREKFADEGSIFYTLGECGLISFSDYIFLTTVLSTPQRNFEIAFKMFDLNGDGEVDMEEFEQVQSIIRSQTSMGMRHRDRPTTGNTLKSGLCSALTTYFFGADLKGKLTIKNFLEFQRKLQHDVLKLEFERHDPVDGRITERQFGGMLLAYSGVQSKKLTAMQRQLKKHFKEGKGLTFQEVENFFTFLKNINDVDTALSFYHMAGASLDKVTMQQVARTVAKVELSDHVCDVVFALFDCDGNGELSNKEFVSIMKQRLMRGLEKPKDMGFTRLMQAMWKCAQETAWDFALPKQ
UniProt Q00013: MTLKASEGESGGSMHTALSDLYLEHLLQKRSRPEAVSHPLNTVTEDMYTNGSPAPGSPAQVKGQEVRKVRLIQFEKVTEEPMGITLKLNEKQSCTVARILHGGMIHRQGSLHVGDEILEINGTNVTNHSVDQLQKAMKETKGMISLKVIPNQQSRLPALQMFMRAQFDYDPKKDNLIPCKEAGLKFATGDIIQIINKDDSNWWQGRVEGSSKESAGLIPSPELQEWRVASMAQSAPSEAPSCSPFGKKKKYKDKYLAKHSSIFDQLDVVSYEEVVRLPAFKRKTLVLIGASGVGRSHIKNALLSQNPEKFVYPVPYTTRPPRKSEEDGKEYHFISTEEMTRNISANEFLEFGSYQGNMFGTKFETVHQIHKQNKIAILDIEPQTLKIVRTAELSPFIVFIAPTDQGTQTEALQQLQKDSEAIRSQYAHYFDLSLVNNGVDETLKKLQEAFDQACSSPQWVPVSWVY
UniProt Q9NWR8: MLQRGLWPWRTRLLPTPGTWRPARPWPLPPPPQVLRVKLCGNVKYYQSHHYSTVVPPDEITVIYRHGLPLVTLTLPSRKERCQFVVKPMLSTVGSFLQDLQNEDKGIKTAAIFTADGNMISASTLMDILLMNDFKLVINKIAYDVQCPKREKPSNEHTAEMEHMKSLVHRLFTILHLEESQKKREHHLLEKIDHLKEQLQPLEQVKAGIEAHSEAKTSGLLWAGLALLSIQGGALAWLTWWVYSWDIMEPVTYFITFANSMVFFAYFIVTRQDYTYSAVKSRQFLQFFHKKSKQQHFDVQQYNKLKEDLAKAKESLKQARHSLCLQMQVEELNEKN
UniProt Q8IYU8: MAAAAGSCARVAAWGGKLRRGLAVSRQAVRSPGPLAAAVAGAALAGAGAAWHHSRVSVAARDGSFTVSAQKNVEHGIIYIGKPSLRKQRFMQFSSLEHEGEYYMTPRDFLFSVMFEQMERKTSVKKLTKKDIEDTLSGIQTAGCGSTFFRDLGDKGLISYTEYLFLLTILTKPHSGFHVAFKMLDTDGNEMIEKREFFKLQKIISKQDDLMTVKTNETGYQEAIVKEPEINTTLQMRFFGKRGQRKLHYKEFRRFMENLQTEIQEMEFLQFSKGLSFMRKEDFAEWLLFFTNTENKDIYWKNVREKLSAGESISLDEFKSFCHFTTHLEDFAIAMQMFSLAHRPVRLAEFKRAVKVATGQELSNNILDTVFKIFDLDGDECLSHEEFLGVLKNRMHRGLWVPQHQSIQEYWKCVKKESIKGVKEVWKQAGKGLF
UniProt Q86XN8, 176-197: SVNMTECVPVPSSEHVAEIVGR
UniProt Q71SY5: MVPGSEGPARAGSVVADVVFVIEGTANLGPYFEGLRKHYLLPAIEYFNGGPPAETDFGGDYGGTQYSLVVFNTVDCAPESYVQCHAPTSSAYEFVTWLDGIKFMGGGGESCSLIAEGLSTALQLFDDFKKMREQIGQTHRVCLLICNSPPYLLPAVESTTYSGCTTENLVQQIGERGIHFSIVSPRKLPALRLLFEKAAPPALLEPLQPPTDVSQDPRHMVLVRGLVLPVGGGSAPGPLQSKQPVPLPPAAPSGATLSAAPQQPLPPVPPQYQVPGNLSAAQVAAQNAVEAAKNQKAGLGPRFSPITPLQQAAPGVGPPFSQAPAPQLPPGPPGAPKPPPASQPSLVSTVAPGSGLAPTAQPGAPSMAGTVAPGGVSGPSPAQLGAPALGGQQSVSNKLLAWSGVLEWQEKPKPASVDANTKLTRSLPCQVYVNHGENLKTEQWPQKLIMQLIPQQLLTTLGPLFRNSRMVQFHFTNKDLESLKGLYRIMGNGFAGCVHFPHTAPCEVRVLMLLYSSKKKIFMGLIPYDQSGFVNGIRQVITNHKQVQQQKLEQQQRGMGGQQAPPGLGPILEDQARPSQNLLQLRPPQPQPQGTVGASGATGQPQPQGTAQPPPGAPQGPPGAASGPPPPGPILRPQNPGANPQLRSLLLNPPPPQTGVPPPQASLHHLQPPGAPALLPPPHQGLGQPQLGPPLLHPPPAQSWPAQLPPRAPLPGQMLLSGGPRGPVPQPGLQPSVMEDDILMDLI
UniProt Q7L2J0: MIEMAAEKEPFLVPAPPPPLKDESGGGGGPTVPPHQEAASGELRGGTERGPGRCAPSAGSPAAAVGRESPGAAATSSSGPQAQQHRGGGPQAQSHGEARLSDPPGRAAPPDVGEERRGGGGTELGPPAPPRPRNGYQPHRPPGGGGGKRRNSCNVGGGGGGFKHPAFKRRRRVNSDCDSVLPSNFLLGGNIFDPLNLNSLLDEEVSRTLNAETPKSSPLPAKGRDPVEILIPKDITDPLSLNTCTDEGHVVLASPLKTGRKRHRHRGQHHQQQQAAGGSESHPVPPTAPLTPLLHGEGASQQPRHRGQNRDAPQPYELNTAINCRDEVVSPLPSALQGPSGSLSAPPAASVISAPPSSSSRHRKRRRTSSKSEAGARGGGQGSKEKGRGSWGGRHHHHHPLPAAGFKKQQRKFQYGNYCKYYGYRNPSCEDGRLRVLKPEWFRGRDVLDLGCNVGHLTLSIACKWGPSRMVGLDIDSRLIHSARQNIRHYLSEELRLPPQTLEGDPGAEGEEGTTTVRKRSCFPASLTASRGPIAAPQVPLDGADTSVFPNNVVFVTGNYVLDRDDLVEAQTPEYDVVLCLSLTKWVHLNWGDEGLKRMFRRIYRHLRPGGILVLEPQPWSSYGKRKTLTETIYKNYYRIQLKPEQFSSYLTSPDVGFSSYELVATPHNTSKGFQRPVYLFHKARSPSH
UniProt O95297: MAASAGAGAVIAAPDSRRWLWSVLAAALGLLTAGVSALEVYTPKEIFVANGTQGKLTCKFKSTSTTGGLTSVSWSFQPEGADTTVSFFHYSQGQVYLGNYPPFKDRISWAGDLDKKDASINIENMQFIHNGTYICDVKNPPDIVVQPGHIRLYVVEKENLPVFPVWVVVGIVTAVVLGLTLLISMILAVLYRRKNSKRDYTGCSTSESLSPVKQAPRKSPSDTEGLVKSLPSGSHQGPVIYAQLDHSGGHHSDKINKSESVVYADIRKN
UniProt Q9BVC4, whole entry, looked up: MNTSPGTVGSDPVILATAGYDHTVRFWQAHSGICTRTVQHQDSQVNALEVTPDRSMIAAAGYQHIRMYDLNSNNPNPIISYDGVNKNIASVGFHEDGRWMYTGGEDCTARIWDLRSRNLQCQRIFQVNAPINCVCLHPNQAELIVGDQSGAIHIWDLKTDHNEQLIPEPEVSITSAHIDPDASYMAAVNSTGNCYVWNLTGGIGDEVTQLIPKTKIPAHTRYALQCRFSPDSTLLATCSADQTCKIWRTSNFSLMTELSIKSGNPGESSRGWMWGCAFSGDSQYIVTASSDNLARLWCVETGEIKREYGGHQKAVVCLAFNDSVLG
UniProt P21741: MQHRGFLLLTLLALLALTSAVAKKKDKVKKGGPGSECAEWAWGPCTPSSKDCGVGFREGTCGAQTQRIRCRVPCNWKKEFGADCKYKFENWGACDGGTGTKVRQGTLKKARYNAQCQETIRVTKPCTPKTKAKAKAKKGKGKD
UniProt Q9Y3A3: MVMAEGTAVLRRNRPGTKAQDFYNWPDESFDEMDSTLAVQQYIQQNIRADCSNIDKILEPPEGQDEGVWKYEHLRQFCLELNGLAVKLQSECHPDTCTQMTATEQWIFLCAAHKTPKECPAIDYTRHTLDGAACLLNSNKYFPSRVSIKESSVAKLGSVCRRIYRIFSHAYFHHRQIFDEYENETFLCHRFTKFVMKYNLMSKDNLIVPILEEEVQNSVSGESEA
UniProt Q9H1A3: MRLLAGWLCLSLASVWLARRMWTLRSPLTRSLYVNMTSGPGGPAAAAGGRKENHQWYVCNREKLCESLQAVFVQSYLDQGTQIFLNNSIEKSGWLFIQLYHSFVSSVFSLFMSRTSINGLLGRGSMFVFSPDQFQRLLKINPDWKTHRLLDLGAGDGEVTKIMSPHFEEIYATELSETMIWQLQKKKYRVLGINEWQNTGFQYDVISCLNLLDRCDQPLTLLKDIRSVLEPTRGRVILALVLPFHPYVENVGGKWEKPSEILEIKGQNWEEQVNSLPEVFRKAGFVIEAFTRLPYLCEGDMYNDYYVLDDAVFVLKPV
UniProt O60291: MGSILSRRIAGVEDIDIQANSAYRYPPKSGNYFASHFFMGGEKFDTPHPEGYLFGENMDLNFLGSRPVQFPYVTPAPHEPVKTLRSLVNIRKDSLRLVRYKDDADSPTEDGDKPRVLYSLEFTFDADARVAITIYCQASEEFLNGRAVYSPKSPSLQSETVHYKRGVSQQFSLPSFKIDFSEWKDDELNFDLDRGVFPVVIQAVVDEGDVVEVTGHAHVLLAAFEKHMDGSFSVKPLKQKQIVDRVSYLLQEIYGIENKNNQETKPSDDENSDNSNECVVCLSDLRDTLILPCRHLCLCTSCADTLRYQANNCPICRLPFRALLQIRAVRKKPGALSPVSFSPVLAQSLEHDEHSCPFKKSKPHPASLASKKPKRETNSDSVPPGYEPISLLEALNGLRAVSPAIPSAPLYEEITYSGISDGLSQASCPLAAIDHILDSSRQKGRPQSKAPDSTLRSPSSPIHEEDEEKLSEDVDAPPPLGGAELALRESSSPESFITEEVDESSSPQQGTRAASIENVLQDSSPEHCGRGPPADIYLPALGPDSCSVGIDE
UniProt Q9H3L0: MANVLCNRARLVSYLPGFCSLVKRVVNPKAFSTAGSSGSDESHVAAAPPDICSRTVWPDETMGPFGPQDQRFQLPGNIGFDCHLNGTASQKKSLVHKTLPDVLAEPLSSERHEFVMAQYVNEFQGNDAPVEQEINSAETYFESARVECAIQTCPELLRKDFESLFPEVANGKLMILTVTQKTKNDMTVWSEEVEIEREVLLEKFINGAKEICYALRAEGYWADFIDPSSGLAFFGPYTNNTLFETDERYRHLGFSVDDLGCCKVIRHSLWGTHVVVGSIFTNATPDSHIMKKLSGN
UniProt Q9Y316: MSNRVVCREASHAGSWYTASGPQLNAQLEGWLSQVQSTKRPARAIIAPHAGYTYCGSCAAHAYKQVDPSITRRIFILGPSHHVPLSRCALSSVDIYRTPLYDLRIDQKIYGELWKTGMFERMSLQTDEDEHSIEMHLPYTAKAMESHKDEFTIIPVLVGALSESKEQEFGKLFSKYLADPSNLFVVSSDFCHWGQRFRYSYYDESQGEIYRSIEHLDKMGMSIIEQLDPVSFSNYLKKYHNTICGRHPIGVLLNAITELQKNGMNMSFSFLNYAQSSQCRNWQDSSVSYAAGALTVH
UniProt P40926: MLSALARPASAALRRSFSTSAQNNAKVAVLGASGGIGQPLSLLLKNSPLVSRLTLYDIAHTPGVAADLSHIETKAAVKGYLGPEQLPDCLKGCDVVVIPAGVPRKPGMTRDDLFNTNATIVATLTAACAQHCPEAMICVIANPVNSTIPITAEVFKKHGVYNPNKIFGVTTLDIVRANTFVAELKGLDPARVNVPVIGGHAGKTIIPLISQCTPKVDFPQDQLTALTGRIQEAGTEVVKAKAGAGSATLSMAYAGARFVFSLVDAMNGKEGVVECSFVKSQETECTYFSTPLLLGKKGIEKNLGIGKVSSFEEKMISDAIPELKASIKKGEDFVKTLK
UniProt Q86W50: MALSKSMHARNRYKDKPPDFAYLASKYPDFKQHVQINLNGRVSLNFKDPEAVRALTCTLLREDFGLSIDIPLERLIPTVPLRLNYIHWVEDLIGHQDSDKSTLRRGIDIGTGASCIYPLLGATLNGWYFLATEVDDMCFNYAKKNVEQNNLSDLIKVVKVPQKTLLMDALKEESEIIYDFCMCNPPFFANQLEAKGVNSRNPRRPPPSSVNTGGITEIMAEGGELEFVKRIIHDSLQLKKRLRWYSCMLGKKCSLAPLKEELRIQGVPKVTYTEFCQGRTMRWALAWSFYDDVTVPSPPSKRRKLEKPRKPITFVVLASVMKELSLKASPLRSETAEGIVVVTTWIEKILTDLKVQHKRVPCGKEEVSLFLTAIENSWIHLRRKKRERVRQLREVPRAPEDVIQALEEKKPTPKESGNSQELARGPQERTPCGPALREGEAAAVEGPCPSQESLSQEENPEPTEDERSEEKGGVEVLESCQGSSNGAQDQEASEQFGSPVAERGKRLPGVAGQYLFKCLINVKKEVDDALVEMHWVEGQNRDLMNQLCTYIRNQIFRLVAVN

compound: ClCC(=O)N[C@@H]1CCCc2ccccc12; experiment: log2 mean competition ratio of IA-DTB cysteine labelling (DMSO/compound) (log2 ratio); higher = stronger cysteine engagement by compound; settings: 50 µM; treatment time: 4 h; cell line lysate: HEK293T
Description: (§1)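 IA-DTB competitive cysteine chemoproteomics in HEK293T RIPA lysate. Lysates were treated with compound 29 or 30 at 50 or 200 µM for 4 h, then IA-DTB (500 µM, 1 h), trypsin-digested, NeutrAvidin-enriched and analysed by diaPASEF. Competition ratio = intensity DMSO / intensity compound (n=4 treated, n=64 DMSO); binding: mean log2 CR ≥ 1 and p ≤ 0.05 plus QC filters. Target is the cysteine site.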

Target | log2 mean competition ratio
MDN1 C3263 (UniProt Q9NU22) | 0.116
MDN1 C4517 (UniProt Q9NU22) | -0.0886
MDC1 C92 (UniProt Q14676) | -0.316
MICU1 C83 (UniProt Q9BPX6) | -0.105
MPP1 C179 (UniProt Q00013) | 0.0226
MCUB C147 (UniProt Q9NWR8) | 0.05
MICU2 C8 (UniProt Q8IYU8) | -0.253
MRNIP C126 (UniProt Q6NTE8) | -0.0774
MEX3D C182 (UniProt Q86XN8) | -0.454
MED25 C429 (UniProt Q71SY5) | 0.437
MOV10 C16 (UniProt Q9HCE1) | -0.0133
MICU1 C62 (UniProt Q9BPX6) | 0.0139
MIPEP C281 (UniProt Q99797) | -0.08
MEPCE C153 (UniProt Q7L2J0) | 0.236
MMS22L C121 (UniProt Q6ZRQ5) | 0.186
MED23 C1319 (UniProt Q9ULK4) | 0.313
MPZL1 C203 (UniProt O95297) | -0.108
MIEF2 C367 | -0.0414
MLST8 C298 (UniProt Q9BVC4) | 0.371

Target | log2 mean competition ratio
MED15 C588 (UniProt Q96RN5) | -0.0171
MDK C116 (UniProt P21741) | 0.26
MIA2 C755 (UniProt Q96PC5) | -0.334
MOB4 C119 (UniProt Q9Y3A3) | -0.308
MORC4 C349 | 0.458
METTL9 C59 (UniProt Q9H1A3) | -0.11
MDN1 C1867 (UniProt Q9NU22) | -0.0249
MMS19 C760 (UniProt Q96T76) | 0.132
MLLT1 C479 (UniProt Q03111) | -0.24
MGRN1 C293 (UniProt O60291) | -0.056
MMADHC C6 (UniProt Q9H3L0) | -0.0884
MFSD3 C346 | 0.628
MLST8 C107 (UniProt Q9BVC4) | 0.0493
MDN1 C1394 (UniProt Q9NU22) | -0.134
MIGA1 C150 | 0.248
MEMO1 C88 (UniProt Q9Y316) | -0.328
MDH2 C93 (UniProt P40926) | -0.236
METTL16 C276 (UniProt Q86W50) | 0.177

same assay, conditions: 200 µM; treatment time: 4 h; cell line lysate: HEK293T

Target | log2 mean competition ratio
MDN1 C3263 (UniProt Q9NU22) | -0.0623
MDN1 C4517 (UniProt Q9NU22) | -0.078
MDC1 C92 (UniProt Q14676) | -0.153
MICU1 C83 (UniProt Q9BPX6) | 0.188
MPP1 C179 (UniProt Q00013) | -0.0862
MCUB C147 (UniProt Q9NWR8) | -0.0741
MICU2 C8 (UniProt Q8IYU8) | 0.121
MRNIP C126 (UniProt Q6NTE8) | 0.205
MEX3D C182 (UniProt Q86XN8) | 0.332
MED25 C429 (UniProt Q71SY5) | 0.0121
MOV10 C16 (UniProt Q9HCE1) | -0.0612
MICU1 C62 (UniProt Q9BPX6) | -0.0569
MIPEP C281 (UniProt Q99797) | 0.102
MEPCE C153 (UniProt Q7L2J0) | -0.233
MMS22L C121 (UniProt Q6ZRQ5) | 0.0119
MED23 C1319 (UniProt Q9ULK4) | -0.318
MPZL1 C203 (UniProt O95297) | -0.135
MIEF2 C367 | 0.133
MLST8 C298 (UniProt Q9BVC4) | 0.196

Target | log2 mean competition ratio
MED15 C588 (UniProt Q96RN5) | 0.0591
MDK C116 (UniProt P21741) | 0.138
MIA2 C755 (UniProt Q96PC5) | -0.00536
MOB4 C119 (UniProt Q9Y3A3) | 0.0494
MORC4 C349 | -0.016
METTL9 C59 (UniProt Q9H1A3) | -0.0823
MDN1 C1867 (UniProt Q9NU22) | 0.152
MMS19 C760 (UniProt Q96T76) | 0.0343
MLLT1 C479 (UniProt Q03111) | 0.117
MGRN1 C293 (UniProt O60291) | -0.113
MMADHC C6 (UniProt Q9H3L0) | 0.423
MFSD3 C346 | -0.0581
MLST8 C107 (UniProt Q9BVC4) | -0.227
MDN1 C1394 (UniProt Q9NU22) | -0.238
MIGA1 C150 | 0.52
MEMO1 C88 (UniProt Q9Y316) | 0.0424
MDH2 C93 (UniProt P40926) | 0.371
METTL16 C276 (UniProt Q86W50) | -0.291

compound: ClCC(=O)N[C@H]1CCCc2ccccc12; experiment: as above; settings: 50 µM; treatment time: 4 h; cell line lysate: HEK293T
Description: as §1

Target | log2 mean competition ratio
MDN1 C4517 (UniProt Q9NU22) | -0.522
MICU1 C83 (UniProt Q9BPX6) | -0.0351
MEX3D C182 (UniProt Q86XN8) | -0.115
MEPCE C153 (UniProt Q7L2J0) | 0.361
MPZL1 C203 (UniProt O95297) | 0.0836
MLST8 C298 (UniProt Q9BVC4) | 0.061
MDK C116 (UniProt P21741) | 0.213
METTL9 C59 (UniProt Q9H1A3) | 0.356
MMADHC C6 (UniProt Q9H3L0) | 0.262
MLST8 C107 (UniProt Q9BVC4) | 0.314
MDH2 C93 (UniProt P40926) | -0.0893
METTL16 C276 (UniProt Q86W50) | 0.186
